3 sequences from publication PMC11914300 can be followed below.

The chains behind the UniProt entries cited, without tags or fusion partners.
UniProt P07910, whole entry S115D: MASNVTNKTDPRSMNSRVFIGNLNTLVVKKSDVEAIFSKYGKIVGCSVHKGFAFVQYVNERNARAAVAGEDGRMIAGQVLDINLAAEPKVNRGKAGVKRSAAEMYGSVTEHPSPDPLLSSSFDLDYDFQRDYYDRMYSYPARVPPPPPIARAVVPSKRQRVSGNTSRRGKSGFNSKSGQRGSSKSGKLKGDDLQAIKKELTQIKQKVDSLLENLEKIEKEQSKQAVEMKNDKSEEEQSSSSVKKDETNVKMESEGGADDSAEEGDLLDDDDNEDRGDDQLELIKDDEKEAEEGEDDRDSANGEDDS

For some of these results: A weaker result is weaker than the reference pair of the same experiment. For some of these results: Construct, isoform or probe ends are uncertain for at least one entry. For some of these results: At least one verdict rests on a figure or table, not on a statement of the authors.

Data set [1] concerns the target hnRNPC2 S115D (UniProt P07910). Nature of the data set: EMSA. The note with it: 10 pmol RNA, EMSA: 20 mM Tris-HCl pH 8.0, 0.25 M NaCl, 1 mM DTT, 10% glycerol, 0.2 mM EDTA, 37 C, 20 min, 5% polyacrylamide gel, recombinant protein, residues 1-306, label: 5' 32P.
Data set [2] deals with hnRNPC2 WT (UniProt P07910). In words: EMSA. As to conditions: 0, 2, 5, 10 uM protein, 10 pmol RNA; EMSA: 20 mM Tris-HCl pH 8.0, 0.25 M NaCl, 1 mM DTT, 10% glycerol, 0.2 mM EDTA; 37 C, 20 min; 5% polyacrylamide gel; recombinant protein; residues 1-306; label: 5' 32P.
Setting [3] is: 0-10 uM protein, strongly reduced vs WT.

Take “ACCCCCUGCACACUUACCCAAUCCUUUUAG [RPL10 intron 6 3' splice site RNA]”: in data set [1] (setting [3]), the binding result is reported as “binds more weakly”.
With “ACUCCUGCCUCUCUACUUCUGUGGCCCCAG [TRAF4 intron 5 3' splice site RNA]”, the binding result in data set [1] (0, 2, 5, 10 uM protein, reduced vs WT) is recorded as “binds more weakly”; in data set [2] it was “binds”.
Consider “AUCUCUUGGCUAUCCCUCUUGCUUCUCCAG [eIF5A intron 5 3' splice site RNA]”, for which, in data set [1] (setting [3]), the binding result is recorded as “binds more weakly”.
